No constants are given. Whether binding was seen depends on the method and setting. Some entries that bind do so weakly or less than the wild type. For some assays here: Tags and fused reporters may be left off the sequences shown.
Assays:
[1] = target: T1, wild-type MD2 (Myeloid Differentiation factor 2) with 6xHis tag, recombinant, made in bacteria (human) (UniProt Q9Y6Y9); experiment: ELISA-type binding assay
T1 sequence: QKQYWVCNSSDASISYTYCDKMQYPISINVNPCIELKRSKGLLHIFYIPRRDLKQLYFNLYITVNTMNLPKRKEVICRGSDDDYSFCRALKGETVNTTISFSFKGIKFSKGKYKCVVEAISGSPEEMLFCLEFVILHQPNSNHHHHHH

The chains behind the UniProt entries cited, without tags or fusion partners. Where a name states a change or a piece, a line headed by the entry shows the natural chain unless it says otherwise.
UniProt P06756: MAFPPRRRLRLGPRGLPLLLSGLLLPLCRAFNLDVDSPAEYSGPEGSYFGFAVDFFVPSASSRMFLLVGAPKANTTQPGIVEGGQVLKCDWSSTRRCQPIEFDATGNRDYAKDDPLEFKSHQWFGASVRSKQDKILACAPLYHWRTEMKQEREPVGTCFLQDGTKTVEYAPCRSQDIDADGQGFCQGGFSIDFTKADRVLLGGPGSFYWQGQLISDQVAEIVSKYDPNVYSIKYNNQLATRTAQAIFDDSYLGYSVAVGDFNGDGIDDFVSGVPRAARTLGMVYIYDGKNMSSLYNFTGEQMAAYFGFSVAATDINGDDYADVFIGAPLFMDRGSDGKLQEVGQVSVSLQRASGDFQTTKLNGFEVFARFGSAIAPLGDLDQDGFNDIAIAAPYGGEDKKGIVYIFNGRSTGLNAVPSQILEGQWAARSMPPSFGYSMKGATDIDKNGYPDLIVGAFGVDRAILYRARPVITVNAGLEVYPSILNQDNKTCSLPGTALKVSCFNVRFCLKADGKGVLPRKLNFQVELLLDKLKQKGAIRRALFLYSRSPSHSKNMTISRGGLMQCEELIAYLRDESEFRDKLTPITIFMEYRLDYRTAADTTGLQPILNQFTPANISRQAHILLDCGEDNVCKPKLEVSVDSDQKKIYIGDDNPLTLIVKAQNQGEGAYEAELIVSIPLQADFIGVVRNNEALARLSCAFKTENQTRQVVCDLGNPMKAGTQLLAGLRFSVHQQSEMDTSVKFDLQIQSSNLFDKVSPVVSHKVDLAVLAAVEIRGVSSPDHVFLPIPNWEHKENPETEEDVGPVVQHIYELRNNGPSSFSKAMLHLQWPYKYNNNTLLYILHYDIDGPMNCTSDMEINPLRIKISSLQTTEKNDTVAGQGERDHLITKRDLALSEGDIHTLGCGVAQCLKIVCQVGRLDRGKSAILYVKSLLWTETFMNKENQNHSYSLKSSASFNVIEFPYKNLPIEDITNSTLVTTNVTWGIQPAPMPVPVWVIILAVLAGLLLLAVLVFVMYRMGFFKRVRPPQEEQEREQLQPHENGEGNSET

[2] = target: T1, wild-type MD2 (Myeloid Differentiation factor 2) with 6xHis tag, recombinant, made in bacteria (human); experiment: ELISA-type binding assay (preliminary studies)
[3] = target: T2, MD2 K130E-K132E mutant (human) (UniProt Q9Y6Y9); experiment: ELISA-type binding assay, MD2 mutant coated, soluble αvβ3
T2 sequence: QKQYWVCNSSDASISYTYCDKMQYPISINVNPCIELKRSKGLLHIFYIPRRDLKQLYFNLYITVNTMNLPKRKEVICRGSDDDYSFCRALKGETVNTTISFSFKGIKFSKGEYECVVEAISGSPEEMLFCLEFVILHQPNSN

[4] = target: T1, wild-type MD2 (Myeloid Differentiation factor 2) with 6xHis tag, recombinant, made in bacteria (human); experiment: ELISA-type binding assay; cation-dependent, blocked by heating MD2 (80° C. for 10 min)
[5] = target: T1, wild-type MD2 (Myeloid Differentiation factor 2) with 6xHis tag, recombinant, made in bacteria (human); experiment: ELISA-type binding assay, WT MD2 coated, soluble αvβ3 5 µg/ml with 1 mM MnCl2, anti-His HRP detection

Measured: binding

recombinant soluble integrin αvβ3 (from UniProt P06756 31-992; P05106 27-718) (receptor)
binds: all assays above
